The record followed here is article doi:10.1101/2023.12.11.571118.

Amino acid sequences for entries named in this document (tags omitted). A change or cut given only in a name is not applied to a line headed by its entry.
UniProt Q84K00: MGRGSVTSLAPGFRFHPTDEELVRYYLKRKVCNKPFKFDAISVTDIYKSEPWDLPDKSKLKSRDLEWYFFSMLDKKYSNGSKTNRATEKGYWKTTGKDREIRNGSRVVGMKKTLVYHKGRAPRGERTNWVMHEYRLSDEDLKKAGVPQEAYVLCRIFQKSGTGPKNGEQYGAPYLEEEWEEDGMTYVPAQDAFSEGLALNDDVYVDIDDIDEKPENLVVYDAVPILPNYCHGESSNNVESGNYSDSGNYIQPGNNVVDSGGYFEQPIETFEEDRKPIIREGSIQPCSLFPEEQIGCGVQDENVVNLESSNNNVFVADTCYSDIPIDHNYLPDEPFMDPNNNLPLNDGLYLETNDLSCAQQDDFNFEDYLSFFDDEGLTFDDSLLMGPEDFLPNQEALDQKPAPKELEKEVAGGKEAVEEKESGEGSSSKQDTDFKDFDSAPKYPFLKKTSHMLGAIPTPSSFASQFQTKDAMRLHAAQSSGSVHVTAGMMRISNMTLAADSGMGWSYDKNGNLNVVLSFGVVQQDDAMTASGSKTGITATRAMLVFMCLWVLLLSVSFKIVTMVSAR
UniProt Q949N0: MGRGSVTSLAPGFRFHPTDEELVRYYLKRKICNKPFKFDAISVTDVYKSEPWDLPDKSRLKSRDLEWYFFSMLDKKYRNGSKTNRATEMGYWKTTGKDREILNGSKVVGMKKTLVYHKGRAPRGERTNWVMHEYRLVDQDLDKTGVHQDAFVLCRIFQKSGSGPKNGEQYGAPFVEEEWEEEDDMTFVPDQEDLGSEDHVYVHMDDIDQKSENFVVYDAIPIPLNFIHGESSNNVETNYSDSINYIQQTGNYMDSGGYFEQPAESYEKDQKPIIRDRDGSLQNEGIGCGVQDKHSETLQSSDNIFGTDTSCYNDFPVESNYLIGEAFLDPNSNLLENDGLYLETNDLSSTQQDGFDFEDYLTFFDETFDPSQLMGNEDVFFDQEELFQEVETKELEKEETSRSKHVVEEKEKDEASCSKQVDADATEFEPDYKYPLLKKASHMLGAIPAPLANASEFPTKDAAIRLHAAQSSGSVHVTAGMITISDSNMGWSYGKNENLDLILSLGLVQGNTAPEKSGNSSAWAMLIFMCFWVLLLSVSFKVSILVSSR

No constants are given. Whether binding was seen depends on the method and setting. In cells and extracts the contact can be indirect. Binding calls can cover weak binding; strength is not graded here.

One test addresses GFP-NAC78 (A. thaliana) (UniProt Q84K00). The test is described as follows: co-IP.
Another test has as its target GFP-NAC53 (A. thaliana) (UniProt Q949N0). In words: co-IP.

B1: RFP-HRD1a (protein, UniProt Q9LW77 1-492)
chain: MIRLRTYAGLSFMATLAVIYHAFSSRGQFYPATVYLSTSKISLVLLLNMCLVLMLSLWHLVKFVFLGSLREAEVERLNEQAWRELMEILFAITIFRQDFSSGFLPLVVTLLLIKALHWLAQKRVEYIETTPSVSKLSHFRIVSFMGFLLLVDSLFMYSSIRHLIQSRQASVSLFFSFEYMILATTTVAIFVKYVFYVTDMLMDGQWEKKPVYTFYLELIRDLLHLSMYICFFFVIFMNYGVPLHLLRELYETFRNFQIRVSDYLRYRKITSNMNDRFPDATPEELTASDATCIICREEMTNAKKLICGHLFHVHCLRSWLERQQTCPTCRALVVPPENATSAAPGQRELHQGSQQGTSSSGNQGSEISSSAGVSNNSLSRHHARLQAAASAASVYGKSMVYPSANTVAWSSGVPGTEQVSTEPDQTLPQHNLPVENSHAYANMSETKLEEMRKSLETHLEILRNRLHFLETRKPESAGEPENKGKSVADAAE
In the case of B1, the binding entry with GFP-NAC78 (A. thaliana) and with GFP-NAC53 (A. thaliana) was “binds” throughout.
